Laboratory results as given in paper PMC11562385 (RSC Chemical Biology, 2024).

What was measured:
[1] = general procedure: Fmoc solid-phase peptide synthesis; Wang resin; HBTU/HOBT/DIPEA; HATU/DIPEA for warhead; conditions: whole synthesis
[2] = peptide made by a vendor (peptide synthesis; Wang resin; HBTU/HOBT/DIPEA; HATU/DIPEA for warhead); conditions: whole synthesis, scale of the general procedure 0.13 mmol (300 mg resin), 0.09 mmol (200 mg) for 1c; for final HPLC purity: 220 nm; for purity (crude or final not stated): analytical RP-HPLC, UV 220 nm
[3] = 220 nm, scale of the general procedure 0.13 mmol (300 mg resin), 0.09 mmol (200 mg) for 1c
[4] = analytical RP-HPLC, UV 220 nm, scale 0.13 mmol
[5] = scale of the general procedure 0.13 mmol (300 mg resin), 0.09 mmol (200 mg) for 1c

| Substance | final HPLC purity [1, 3] [%] | purity (crude or final not stated) [1, 4] [%] | isolated yield [1, 5] [%] | further results |
| --- | --- | --- | --- | --- |
| RGVARRDYRGDPGFDYWHWE | 98 |  |  | isolated yield ([1]; scale 0.13 mmol): 33% |
| RWCAR-RDYRFDMGFD-YWGWE | 90 |  |  | isolated yield ([1]; scale 0.13 mmol): 33% |
| RWVA-RAYGNYGYID-VWHWE | 98 | 98 | 19 |  |
| RWVA-RAYGNYWYID-VWHWE | 99 | 99 | 23 |  |
| RWVA-REGMNTDGYFD-YWHWE | 98 | 98 | 33 |  |
| RWVA-REGMNTDGYFN-YWVWE |  | 95 |  | final HPLC purity [2]: 95% |
| RWVA-REGMNTDG[Dab(ACA)]FN-YWVWE | 99 | 99 | 22 |  |
| RWVA-REGMNTDG[Dap(ACA)]FN-YWVWE | 99 | 99 | 19 |  |
| RWVA-REGMNTDWYFD-YWHWE | 94 | 94 | 10 |  |
| RWVA-RGGGGKKGGFD-YWVWE | 99 |  |  | isolated yield ([1]; scale 0.13 mmol): 51% |
| RWVA-RRDYRFDMGFD-YWVWE | 99 |  |  | isolated yield ([1]; scale 0.13 mmol): 36% |
| RWVA-RRDYRGDMGFD-YWHWE | 95 | 95 | 65 |  |
| RWVA-RRDYRGDMGFD-YWVWE | 99 |  |  | isolated yield ([1]; scale 0.13 mmol): 34% |
| RWVAR-RDYRFDMGFD-YWHWE | 97 | 99 |  |  |
| RWVAR-RDYRFDMGFN-YWVWE |  |  |  | final HPLC purity [2]: 96%; purity (crude or final not stated) [2]: 96% |
| RWVAR-RDYRFD[Dab(ACA)]GFD-YWVWE | 99 | 99 | 9 |  |

| Substance | final HPLC purity [1, 3] [%] | purity (crude or final not stated) [1, 4] [%] | isolated yield [1, 5] [%] | further results |
| --- | --- | --- | --- | --- |
| RWVAR-RDYRFD[Dab(DMA)]GFD-YWVWE | 99 | 99 | 20 |  |
| RWVAR-RDYRFD[Dab(MAA)]GFD-YWVWE | 99 | 99 | 14 |  |
| RWVAR-RDYRFD[Dap(ACA)]GFD-YWVWE | 99 | 99 | 4 |  |
| RWVAR-RDYRGDMGFN-YWVWE | 99 | 99 | 32 |  |
| RWVKR-RDYRFDMGFD-YWVWE |  |  |  | final HPLC purity [2]: 99%; purity (crude or final not stated) [2]: 99% |
| RWVKR-RDYRGDM..GFD-YWVWE | 97 | 97 | 31 |  |
| RWVVR-RDYRFDMGFD-YWVWE |  |  |  | final HPLC purity [2]: 97%; purity (crude or final not stated) [2]: 97% |
| RWVVR-RDYRGDMGFD-YWVWE |  |  |  | final HPLC purity [2]: 99%; purity (crude or final not stated) [2]: 99% |
| RWVW-GGGGKKGGGG-WVWE | 98 |  |  | final HPLC purity ([1]; analytical RP-HPLC, UV 220 nm, scale of the general procedure 0.13 mmol (300 mg resin), 0.09 mmol (200 mg) for 1c): 88%; isolated yield ([1]; scale 0.13 mmol): 70% |
| RWVW-RDLDIATTRDY-WVWE | 93 | 93 | 28 |  |
| RWVW-RDYRFDMGFD-WVWE | 93 |  |  | isolated yield ([1]; scale 0.09 mmol): 30% |
| RWVW-RDYRGDMGFD-WVWE | 99 |  |  | isolated yield ([1]; scale 0.13 mmol): 35% |
| RWVW-RRDYRFDMGFD-YWVWE | 90 |  |  | isolated yield ([1]; scale 0.13 mmol): 53% |
| RWVW-SPDSSGVAY-WVWE | 99 | 99 | 43 |  |
| cRWCAR-RDYRFDMGFD-YWCWE |  |  |  | final HPLC purity ([1]; 220 nm, scale of the general procedure 0.13 mmol (300 mg resin), 0.09 mmol (200 mg) for 1c, one disulfide bridge, sequence written open): 99%; purity (crude or final not stated) ([1]; analytical RP-HPLC, UV 220 nm, scale 0.13 mmol, one disulfide bridge, sequence written open): 99%; isolated yield ([1]; scale of the general procedure 0.13 mmol (300 mg resin), 0.09 mmol (200 mg) for 1c, one disulfide bridge, sequence written open): 16% |

For some of these results: Plain letter strings leave the end groups untold.
